This note sets out measurements from publication PMC12370185.

The other results are listed elsewhere or left out.

This experiment deals with SOX2 + histone octamer. The experiment is described as follows: EMSA with sequencing. To be noted: 10 mM Tris-Cl pH 7.5, 50 mM NaCl, 1 mM DTT, 0.25 mg/ml BSA, 2 mM MgCl2, 0.025% Nonidet P-40, 5% glycerol; 28 nM nucleosome library; 10 min on ice then 30 min …; high values mean tight binding; double strand, one strand shown. (In general: Mobility shift assays separate free from complexed probe on a gel.)
Regarding “GATGGACCCTATACGCGGCTAAAGTCCTTCAACATGTGAACAGACACTGTTTCTGAGGCTGTCACACACATGCAGGGAAAAGGATTTACCTTACAAAACAATGTTGCTTTGATAATACCACATCTGCAACCCTAATTGTGCCTTTGTAGCAAGTTGGTTTGGCCATTGGTCATCCTCCACAGCACTGCAATTTATCCTCCAGGAACACATTGCCAGTCGGATAGTGTTCC”, the binding signal (log2 relative supershift) turned out to be 0.688.

For the sequence “GATGGACCCTATACGCGGCTTGAAAGCCAAACTCTTAGATGTTGTGCATGTCGAAACTGGAACAAAGATTATAATGCAAGTTCAATTTTCCTCAAATATGGATCTCAACATTAATTGTGGTATGCAGCTCACCCACAGCCTTGGGTGTGGTCTATGAATGCAGCTGCTACTCTGTTCTACAATTATTGTATTTTATTGCCATTATGACTGTGCCAGTCGGATAGTGTTCC”, the binding signal (log2 relative supershift) amounted to 1.44. Consider “GATGGACCCTATACGCGGCTCTACTTCTTGTTTCTTTCCTTGCTATTTAATACTTAAAGTGTGGTGCCCCACTTGTTTGCCAGGAGCAGTATCACATCAGACTCTGCTGTTAACAAGGTCCCCAGGTGATTCATATGCACATTAAAGTTCATTTTGCACCTCTTTTGGCATTGACTTTACTTTCAGTGGCCTATTTTATGTAATGTAAAATGCCAGTCGGATAGTGTTCC”, for which the binding signal (log2 relative supershift) came out at 0.237. In the case of “GATGGACCCTATACGCGGCATGATTCTCGCCAGTGGTATTAACATATCCTCAGTGGTGAGTATTAACATGGAACTTACTCCAACAATACAGATGCTGAATAAATGTAGTCTAAGTGAAGGAAGAAGGAAAGGTGGGAGCTGCCATCACTCAGAATTGTCCAGCAGGGATTGTGCAAGCTTGTGAATAAAGACAGAGGTTATTGAACAGCGTGCCAGTCGGATAGTGTTCC”, the binding signal (log2 relative supershift) amounted to 0.321. Regarding “GATGGACCCTATACGCGGCGAGTAAACCAGTCTGCCTGTGAGAGTATTGACTGTGGTTAAGAATGCGGGATTGTGTTGCAAAGAAGCTCAGGCCTGTAATGTTATCACTCAGCAGGACTGGGTCCCATCAGAAGGCACATGGTGTGCCATGACGTAGCTGGTCTTCGACCACAAAAGCAGACTTTTCTCTGTGAATTAGACAAACCACACTGCCAGTCGGATAGTGTTCC”, the binding signal (log2 relative supershift) turned out to be 0.818.

On to “GATGGACCCTATACGCGGCTGCTGGAATGTTCCTGTATTGCCTGCTTTAGCATGTGTGTTGGCAGGGTGTAGATACATACACCCCCACAACGACCCTCCTCCCACCCTATGTAAATGTACTCACTCTACAGCATTGTAAAGGATTTCATTGTGCCATTTTGTTTTCAGAATCATCTTTCACTCTTTTGTGAGTATAATGATAGTAGCTGTTGCCAGTCGGATAGTGTTCC”, for which the binding signal (log2 relative supershift) was found to be 1.64. For the sequence “GATGGACCCTATACGCGGCTGTGAAATAACCTGCATTAGAATTACCTGGTGGACAACACATATTAACAATGCATATTCTGAGTCCTCAAAGAACTATCAAATAAGAATCTTTGAGGTGGGGCTACACAATCTCCATCACTGGCAAGCACTCCCAGTACTTCTTATGCACATTACAATTCAAGAACCACTCATGGCTCACATAACTGCTCATGCCAGTCGGATAGTGTTCC”, the binding signal (log2 relative supershift) was found to be 0.962. As for “GATGGACCCTATACGCGGCGCTTTAGAAATGAATTAAACTCGGTGGAACATTGAATGAGAGTTCACCATTACAATGAGGTACATTTACAATGTTAACAAATGAGGATAAACAGTGATACTTCCCTTTGTGTTATGGGGAGGGGGGCGGGCAAGTGAATGGCCAGGAGCCAAAGGTGGAGGAGAGACATGCTTTTCACAATGTATTCTGATTGCCAGTCGGATAGTGTTCC”, the binding signal (log2 relative supershift) was 1.54. Regarding “GATGGACCCTATACGCGGCTTTGGTTTTCCATATTTATATCCTATATACTTGTGTGTACAATGCAAGCTTTGTTATGCTGTATCTGGCCAGTGTTTTCTTCCCTTTACAACAGGCAGTAACTGTAGCTGTGCATAATGTACCTGACAGTGAAGGTGGCTGGCTATTGAAGTCTCTTGTTGGGCAACGTTTGTGCTGGCACAGCCATGGTATGCCAGTCGGATAGTGTTCC”, the binding signal (log2 relative supershift) was determined as 0.692.

Regarding “GATGGACCCTATACGCGGCTATAGAGATTGAATGGAAGAGTGCCTTGGAAAGTGTCTCTACCAAATGGCACCTGAGCTGAATGTTGTAGAATAAGAGCTGTTCATCAGGATGACAATGGGAGGGGAGGAGGCTGAGATAAAGGCATTTCAAATGGAGGGAATAGCAAAGATGTGGAAGCATGGCCTGTCATTAAACTGCAAGTAGTTCAGTGCCAGTCGGATAGTGTTCC”, the binding signal (log2 relative supershift) was found to be 0.865.

Regarding “GATGGACCCTATACGCGGCGAACAATCAAGAGCTGTTTCTCTTTGCTCTTCCTCATAGCCATGCTGGAGGCATTCATAGGCACATCCTGGTGGAGGGTGATTTGGGTGGGTAGGAATGGACTTGTTCTGTTGACATTGGCATGAAAGGACTAGAGTGCATCCATCATTCTATGGGTATTTAATGGGCCCTATGTTGAGCTGTGTTCTGGTTGCCAGTCGGATAGTGTTCC”, the binding signal (log2 relative supershift) turned out to be 1.5.

As for “GATGGACCCTATACGCGGCTGTGTTTTAAAAAAGAAGTATTTCTTGCAAACACTTATGACTTGTCTATGTCTTCTACAAGTCTGGACATGTCTTGGAACATTATCTGTGTTCTGTGGGTTACAAGGCTTGTCGAGGTCAAAGTACTCAGACATGAGACAGGCACCTTGTATACTCCAGAGAGCTAGAAATACTTGGAGATTAAGTCTAGTTGCCAGTCGGATAGTGTTCC”, the binding signal (log2 relative supershift) was 0.359. On to “GATGGACCCTATACGCGGCGAATGGTGGCTGGACTCTATTAGGCTCCAAACTCTCATGTGCCTGAGCGCCAGCTCCCTCTCTAAACATAAGCATCTCGGGGCTGGAGGTGGGGGGAAATTTTCTGATGCATCTTTCTTTGCCATGTAATTCCTACCCCAGGATCATGCTCACATAAGTGTTCTTGGAATATGTGAGTAAGTGACTGAAAATGCCAGTCGGATAGTGTTCC”, for which the binding signal (log2 relative supershift) worked out at 0.436. In the case of “GATGGACCCTATACGCGGCTCATGGAATCCTTCATTAGCTCCATTTCTTAGCAGAAAAGGTTGTGCAGCATATGCCATATCATACTGGATATGCCCCATCTCATGATGAGCTGTCAGGAAGTCGTCCATTGTCACCTTTGTGCACATAAGGATCCTGCATGAAAATGGACAAGATGAAAATGAATCTCACTGACTTTCATTTAACCATTATGCCAGTCGGATAGTGTTCC”, the binding signal (log2 relative supershift) was found to be 1.08.

Regarding “GATGGACCCTATACGCGGCTGAAACAATCCTTACTCAGAGAGTGGATTTGCATCTCTAATAGAGTTCAGGCTCTGTTTGTGAAAGGCTTTTGCTAGGCCTGACCCCATGTCTCAGGAGCACATTGATACCCAGCGCCTTGCCTTTGCCTTGTCCCACACCACAGAGAGCAGTATCATGGGAAAATGCACTAACCTAAAAGAAAGCAAAGGTGCCAGTCGGATAGTGTTCC”, the binding signal (log2 relative supershift) was found to be 1.22. In the case of “GATGGACCCTATACGCGGCCACTATTTCACGACCTTGCACATAGTTCATTTGTTTCATACATCACACACTGTTGTGTTACGTATTGACATGGCTGTCTTCACAACTAGGCTCTGAGCACCTTAAAGGCTGGGACTGACGCCAGTCACAATCTAATGCAAAGGACAGTGCTGTTATGGAAATGTTTATTGAACTGAACTGAAAATCCTGCCTGCCAGTCGGATAGTGTTCC”, the binding signal (log2 relative supershift) stood at 0.904. On to “GATGGACCCTATACGCGGCACACAAACTCTTTCCCCCTTGTCCGTTTGCAGGCTCTCTCATCTGGCACCTATAGTGACACCTGCTCCTTTGAGTGGCCCCTTGCCCAGGACACAGCTGTGTTCCTTCATGGCATCATTTGTGTGCTGGCTCAGGCCAGCCTATGGTCCCTGCTCCCCAAGCCTCTCACTGAAGAGAAAGGCACTGAAAGGTGCCAGTCGGATAGTGTTCC”, for which the binding signal (log2 relative supershift) stood at 0.512. For “GATGGACCCTATACGCGGCTTTTAAAAATCAATGGCTGATAATACTGTTATCTGTGGTTATACAGCTGATACCAGCATTAAGGACCAAGGTGTCTGTACTAGTGTTTGTATTGCAGGAGGTGGAGAGCGAACAATACCATGAAAAGCAACAAGTTCCTGTGTGCTGCTATATTTGGATAAGAGAGGAAGAATGAGATGGAGGGACTTGTTTGCCAGTCGGATAGTGTTCC”, the binding signal (log2 relative supershift) worked out at 0.992.
